Experimental data: PubChem BioAssay AID1224826 (NIAID, 2016)

Aim: 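Regulators of Tlr4 signalling leading to Tnf-alpha expression in macrophages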 (primary screen)
Cell system: RAW264.7 G9 macrophages from mouse bearing reporters for p65 (GFP) and the Tnf promoter (mCherry)
Knock-down reagent: siRNA pool against mouse genes, 100 nM
Duration: 16 h of LPS stimulation, after 2 days of siRNA transfection
Challenge: bacterial lipopolysaccharide (Salmonella minnesota R595), 10 ng/ml
Measured: 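Nuclear mCherry signal of the Tnf promoter reporter measured by imaging after background removal, scaled to each plate median and turned into robust z-scores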
Scale: Tnf reporter robust z-score: higher = stronger Tnf promoter reporter signal after LPS
Hit rule: 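Called active when robust z-score is at most -1.3, matching the median of the Tlr4 knock-down control, or over 3; control wells and wells with under 50 cells never active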
Calls: active = Tnf reporter clearly lowered or raised; inactive = no clear change in Tnf reporter
The whole screen tested about 17,000 reagents; this is an unselected part. About 1,110 of them (6.6%) count as active. 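Active means lowered or raised reporter signal; replicate intensities are raw and not normalised per plate.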 A number with no mark means an inactive call. Not all columns of the deposit are shown.

The first 2 records, ahead of the listing:
{"target":"Timm8b (translocase of inner mitochondrial membrane 8B)","PubChem SID":"SID315470743","Tnf reporter robust z-score":2.32,"fewer than 50 cells in well":"enough cells in well"}
{"target":"Mia2 (MIA SH3 domain ER export factor 2)","PubChem SID":"SID315478133","Tnf reporter robust z-score":-0.29,"fewer than 50 cells in well":"enough cells in well"}

Main list, repeating the preview:
{"target":"Timm8b (translocase of inner mitochondrial membrane 8B)","PubChem SID":"SID315470743","Tnf reporter robust z-score":2.32,"fewer than 50 cells in well":"enough cells in well"}
{"target":"Mia2 (MIA SH3 domain ER export factor 2)","PubChem SID":"SID315478133","Tnf reporter robust z-score":-0.29,"fewer than 50 cells in well":"enough cells in well"}
{"target":"Mia2 (MIA SH3 domain ER export factor 2)","PubChem SID":"SID315481662","Tnf reporter robust z-score":0.89,"fewer than 50 cells in well":"enough cells in well"}
{"target":"Tnni3 (troponin I, cardiac 3)","PubChem SID":"SID315469783","Tnf reporter robust z-score":-1.16,"fewer than 50 cells in well":"enough cells in well"}
{"target":"Tmem161a (transmembrane protein 161A)","PubChem SID":"SID315479157","Tnf reporter robust z-score":1.36,"fewer than 50 cells in well":"enough cells in well"}
{"target":"Ift57 (intraflagellar transport 57)","PubChem SID":"SID315474802","Tnf reporter robust z-score":-1.08,"fewer than 50 cells in well":"enough cells in well"}
{"target":"Nckipsd (NCK interacting protein with SH3 domain)","PubChem SID":"SID315475769","Tnf reporter robust z-score":-0.34,"fewer than 50 cells in well":"enough cells in well"}
{"target":"Kctd12b (potassium channel tetramerisation domain containing 12b)","PubChem SID":"SID315477483","Tnf reporter robust z-score":0.06,"fewer than 50 cells in well":"enough cells in well"}
{"target":"Mttp (microsomal triglyceride transfer protein)","PubChem SID":"SID315468025","Tnf reporter robust z-score":0.12,"fewer than 50 cells in well":"enough cells in well"}
{"target":"Hgd (homogentisate 1, 2-dioxygenase)","PubChem SID":"SID315467197","Tnf reporter robust z-score":-0.97,"fewer than 50 cells in well":"enough cells in well"}
{"target":"Cdhr1 (cadherin-related family member 1)","PubChem SID":"SID315477190","Tnf reporter robust z-score":-0.37,"fewer than 50 cells in well":"enough cells in well"}
{"target":"Pde8b (phosphodiesterase 8B)","PubChem SID":"SID315478196","Tnf reporter robust z-score":2.15,"fewer than 50 cells in well":"enough cells in well"}
{"target":"Papolg (poly(A) polymerase gamma)","PubChem SID":"SID315478013","Tnf reporter robust z-score":-0.1,"fewer than 50 cells in well":"enough cells in well"}
{"target":"Gm15850 (predicted gene 15850)","PubChem SID":"SID315481517","Tnf reporter robust z-score":"3.67 (active)","fewer than 50 cells in well":"enough cells in well"}
